This passage reports binding results from patent US20150203581A1.

By UniProt entry, the sequences of proteins in these tests, tags left out. Where a name states a change or a piece, a line headed by the entry shows the natural chain unless it says otherwise.
UniProt P08648: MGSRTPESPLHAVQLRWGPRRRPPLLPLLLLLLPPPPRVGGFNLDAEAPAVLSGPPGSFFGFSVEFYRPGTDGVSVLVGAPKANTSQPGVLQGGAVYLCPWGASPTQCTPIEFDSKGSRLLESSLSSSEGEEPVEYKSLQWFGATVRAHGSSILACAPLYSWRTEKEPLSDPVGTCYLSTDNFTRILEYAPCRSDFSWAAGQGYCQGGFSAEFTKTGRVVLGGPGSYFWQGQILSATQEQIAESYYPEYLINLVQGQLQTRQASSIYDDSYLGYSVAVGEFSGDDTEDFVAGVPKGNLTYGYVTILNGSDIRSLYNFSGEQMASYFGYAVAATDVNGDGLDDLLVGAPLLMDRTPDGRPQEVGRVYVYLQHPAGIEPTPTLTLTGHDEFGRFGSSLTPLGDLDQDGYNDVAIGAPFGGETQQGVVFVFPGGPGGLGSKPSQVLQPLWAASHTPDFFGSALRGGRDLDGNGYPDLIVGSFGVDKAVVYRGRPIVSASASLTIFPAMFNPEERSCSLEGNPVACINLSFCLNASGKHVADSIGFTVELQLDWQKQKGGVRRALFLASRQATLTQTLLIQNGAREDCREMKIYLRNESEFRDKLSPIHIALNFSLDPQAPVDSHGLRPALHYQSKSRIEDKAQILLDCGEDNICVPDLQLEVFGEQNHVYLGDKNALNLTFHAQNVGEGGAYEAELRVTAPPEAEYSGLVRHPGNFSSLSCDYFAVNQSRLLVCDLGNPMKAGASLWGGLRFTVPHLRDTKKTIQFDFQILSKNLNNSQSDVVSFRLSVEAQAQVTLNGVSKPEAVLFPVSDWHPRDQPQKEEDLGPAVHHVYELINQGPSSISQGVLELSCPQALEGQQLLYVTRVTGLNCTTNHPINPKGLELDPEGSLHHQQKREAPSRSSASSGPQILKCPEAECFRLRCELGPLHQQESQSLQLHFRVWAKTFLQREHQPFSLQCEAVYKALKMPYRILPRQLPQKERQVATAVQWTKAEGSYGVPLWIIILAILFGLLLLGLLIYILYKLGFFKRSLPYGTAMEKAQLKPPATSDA
UniProt P05556: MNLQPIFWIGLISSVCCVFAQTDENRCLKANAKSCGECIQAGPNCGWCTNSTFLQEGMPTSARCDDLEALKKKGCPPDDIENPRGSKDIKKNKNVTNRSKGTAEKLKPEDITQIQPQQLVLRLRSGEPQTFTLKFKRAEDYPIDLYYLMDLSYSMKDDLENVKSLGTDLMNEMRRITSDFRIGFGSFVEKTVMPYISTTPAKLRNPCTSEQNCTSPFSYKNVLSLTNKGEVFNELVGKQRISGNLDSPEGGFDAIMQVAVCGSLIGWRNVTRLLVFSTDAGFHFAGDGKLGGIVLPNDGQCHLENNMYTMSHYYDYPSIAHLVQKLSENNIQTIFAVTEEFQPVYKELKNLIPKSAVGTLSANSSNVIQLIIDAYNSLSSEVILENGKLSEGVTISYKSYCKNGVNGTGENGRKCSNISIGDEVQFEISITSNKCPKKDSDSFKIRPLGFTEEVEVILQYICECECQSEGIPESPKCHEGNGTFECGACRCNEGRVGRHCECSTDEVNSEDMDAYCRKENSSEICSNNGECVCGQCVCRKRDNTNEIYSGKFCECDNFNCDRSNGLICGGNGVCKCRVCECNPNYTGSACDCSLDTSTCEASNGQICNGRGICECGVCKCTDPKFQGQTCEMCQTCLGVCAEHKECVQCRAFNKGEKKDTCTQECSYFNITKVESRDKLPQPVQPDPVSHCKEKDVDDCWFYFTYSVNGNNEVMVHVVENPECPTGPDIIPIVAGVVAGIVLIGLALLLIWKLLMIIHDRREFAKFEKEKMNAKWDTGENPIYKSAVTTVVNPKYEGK

Residue numbers refer to the chain shown, from its start. Results are given in words; binding and its absence hold for the method and conditions named. Some results given as binding are weak or reduced against the parent protein; the word gives no strength.

In this experiment the target is recombinant human integrin α5β1 (human) (UniProt P08648+P05556). As to the kind of experiment: phage competition ELISA, Fab on phage.

B1: h18C12.v3 (Fab, V domains shown)
VH: EVQLVESGGGLVQPGGSLRLSCAASGFTFSNRWIYWVRQAPGKGLEWVGGIKTKPNIYATEYADSVKGRFTISRDDSKNTLYLQMNSLRAEDTAVYYCARLTGMRYFDYWGQGT
VL: EPVLTQSPSASASLGASVKLTCTLSSQHSTYTIGWYQQQPGKAPRYLMYLNSDGSHNKGDGIPDRFSGSSSGADRYLTISNLQSEDEADYYCGSSYSSGYVFGGGT
As to B1, the binding result is “binds”.

B2: h18C12.v6 (Fab, V domains shown)
VH: B1 VH with R105K
VL: B1 VL with G93A, S94A, S95Y, S97A, S98Y
For the molecule B2, the binding result is on record as “binds”.
